Measurements reported in article PMC7412674.
These are yes or no findings as the source states them, for the method shown. In cells and extracts the contact can be indirect. Some results given as binding are weak or reduced against the parent protein; the word gives no strength. Tags and fused reporters may be left off the sequences shown.

How the values were obtained:
[1] = biological target: T1, EYFP-IL20RB-Extr-HA (extracellular domain of IL20RB, from pEYFPC1-IL20RB-Extr-HA) (human) (UniProt Q6UXL0); assay: co-IP; lysates of transfected COS-7 cells, 4 μg anti-HA antibody 1 h at 4 °C, Protein A-Agarose 12 h at 4 °C, washed 4 times with PBS; western blot for FLAG and HA
T1 sequence: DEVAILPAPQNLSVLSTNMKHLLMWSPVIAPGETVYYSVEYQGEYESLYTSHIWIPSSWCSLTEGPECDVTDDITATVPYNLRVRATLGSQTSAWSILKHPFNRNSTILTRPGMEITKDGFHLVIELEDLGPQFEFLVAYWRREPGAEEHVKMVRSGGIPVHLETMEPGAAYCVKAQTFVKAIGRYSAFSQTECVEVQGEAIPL

[2] = biological target: T2, EYFP-IL20RB-HA (interleukin 20 receptor subunit b, from pEYFPC1-IL20RB-HA) (human) (UniProt Q6UXL0); assay: as above
T2 sequence: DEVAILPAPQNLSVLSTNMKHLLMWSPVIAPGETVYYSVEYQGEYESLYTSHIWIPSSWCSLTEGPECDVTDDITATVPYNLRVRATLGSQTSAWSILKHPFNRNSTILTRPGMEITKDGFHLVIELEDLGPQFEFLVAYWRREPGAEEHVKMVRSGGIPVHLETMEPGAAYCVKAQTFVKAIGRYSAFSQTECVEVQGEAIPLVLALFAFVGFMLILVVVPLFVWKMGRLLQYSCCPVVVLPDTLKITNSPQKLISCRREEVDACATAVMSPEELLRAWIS

[3] = biological target: T2, EYFP-IL20RB-HA (interleukin 20 receptor subunit b, from pEYFPC1-IL20RB-HA) (human); assay: FRET or BRET; COS-7 cells on coverslips co-transfected with pCFPN1-ROP18-3×FLAG and pEYFPC1-IL20RB-HA for 48 h; confocal microscope, sensitized emission; FRET efficiency and intermolecular distance against CFP+YFP (negative) and a CFP-YFP fusion (positive)

Measured: binding

B1: CFP-ROP18-3×FLAG (Toxoplasma gondii rhoptry protein 18, type I, from pCFPN1-ROP18-3×FLAG) (enzyme, UniProt Q2PAY2 1-554)
chain: MFSVQRPPLTRTVVRMGLATLLPKTACLAGLNVALVFLLFQVQDGTGITLGPSKLDSKPTSLDSQQHVADKRWLATVGHYKHLAGATESTRDVSLLEERAQHRVNAQETNQRRTIFQRLLNLLRRRERDGEVSGSAADSSSRPRLSVRQRLAQLWRRAKSLFKRGIRRYFPQGRNRQRSLRAQRRRSELVFEKADSGCVIGKRILAHMQEQIGQPQALENSERLDRILTVAAWPPDVPKRFVSVTTGETRTLVRGAPLGSGGFATVYEATDVETNEELAVKVFMSEKEPTDETMLDLQRESSCYRNFSLAKTAKDAQESCRFMVPSDVVMLEGQPASTEVVIGLTTRWVPNYFLLMMRAEADMSKVISWVFGDASVNKSEFGLVVRMYLSSQAIKLVANVQAQGIVHTDIKPANFLLLKDGRLFLGDFGTYRINNSVGRAIGTPGYEPPERPFQATGITYTFPTDAWQLGITLYCIWCKERPTPADGIWDYLHFADCPSTPELVQDLIRSLLNRDPQKRMLPLQALETAAFKEMDSVVKGAAQNFEQQEHLHTE
binds: [1] | [2] | [3]
